The values that follow come from PMC6280682, “The Micronemal Plasmodium Proteins P36 and P52 Act in Concert to Establish the Replication-Permissive Compartment Within Infected Hepatocytes” (Frontiers in Cellular and Infection Microbiology, 2018).

Results are given in words; binding and its absence hold for the method and conditions named. Binding seen in cells or lysates may run through a third protein. A yes stands for co-enrichment or nearness to the bait. Other partners may have been found. For some of these results: No binding means not detected with the bait. Tags and fused reporters may be left off the sequences shown.

For experiment [1], the target named is T1, Plasmodium yoelii P36 with a C-terminal mCherry tag (P36^mCherry) (Plasmodium yoelii) (UniProt Q7RPW4).
T1 sequence: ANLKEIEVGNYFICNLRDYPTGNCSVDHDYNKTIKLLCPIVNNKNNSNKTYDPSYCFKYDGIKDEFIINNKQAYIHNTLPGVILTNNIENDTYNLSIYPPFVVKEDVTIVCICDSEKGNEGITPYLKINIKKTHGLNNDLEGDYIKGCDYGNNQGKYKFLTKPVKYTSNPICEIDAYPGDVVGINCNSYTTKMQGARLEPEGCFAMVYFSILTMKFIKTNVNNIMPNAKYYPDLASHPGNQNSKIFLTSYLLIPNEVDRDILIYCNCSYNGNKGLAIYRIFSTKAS
Kind of experiment: affinity purification with mass spectrometry; BS3-crosslinked P36^mCherry sporozoite lysate immunoprecipitated with RFP-Trap, S-Trap digest, LC-MS/MS (Q-Exactive HF), spectral counting.

In experiment [2] the target is T2, Plasmodium yoelii P52 with a C-terminal 4xMyc tag (P52^myc) (Plasmodium yoelii) (UniProt Q7K5V2).
T2 sequence: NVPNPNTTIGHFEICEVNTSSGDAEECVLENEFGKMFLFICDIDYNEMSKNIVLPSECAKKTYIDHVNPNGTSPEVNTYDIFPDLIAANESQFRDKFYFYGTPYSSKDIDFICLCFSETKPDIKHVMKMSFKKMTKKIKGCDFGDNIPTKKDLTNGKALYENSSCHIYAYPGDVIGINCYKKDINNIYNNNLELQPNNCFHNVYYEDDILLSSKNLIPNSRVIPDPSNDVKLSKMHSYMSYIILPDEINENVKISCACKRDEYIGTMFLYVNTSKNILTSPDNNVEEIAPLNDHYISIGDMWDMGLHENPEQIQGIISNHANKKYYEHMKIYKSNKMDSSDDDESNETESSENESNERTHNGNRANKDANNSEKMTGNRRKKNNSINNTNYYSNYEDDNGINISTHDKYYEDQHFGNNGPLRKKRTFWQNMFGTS
Kind of experiment: affinity purification with mass spectrometry; inverse pulldown: P52^myc immunoprecipitated from P52^myc sporozoite lysate with Myc-Trap; Py GFP-Luc sporozoite lysate as wild-type control; mass spectrometry.

The target of experiment [3] is T1, Plasmodium yoelii P36 with a C-terminal mCherry tag (P36^mCherry) (Plasmodium yoelii). Kind of experiment: affinity purification with mass spectrometry; RFP-Trap IP of P36^mCherry from non-crosslinked sporozoite lysate; SDS-PAGE fractions, in-gel tryptic digest, LC-MS/MS, spectral counting against wild-type IP and unconjugated beads.

HSP70-2/BiP, Plasmodium yoelii: the binding entry in experiment [1], in experiment [2] and in experiment [3] was “binds” throughout.

With “thrombospondin-related anonymous protein (TRAP), Plasmodium yoelii”, the binding entry in experiment [2] is recorded as “no binding”.
